# Laboratory results from the supplement of paper PMC12819154, “High-throughput peptide-centric local stability assay extends protein–ligand identification to membrane proteins, tissues and bacteria” (Nature Structural & Molecular Biology, 2025).
# The list shows a part of the results. Most values lie at the level of the controls, where differences are scatter.
# Compound: Cc1nc(Nc2ncc(C(=O)Nc3c(C)cccc3Cl)s2)cc(N2CCN(CCO)CC2)n1 [dasatinib]
# Experiment: log2 fold change of tryptic peptide abundance, ligand vs vehicle (limited proteolysis) (log2 ratio); higher = more trypsin-susceptible (destabilized)
# Conditions: ligand concentration: 5 uM; sample: K562 cleared lysate
row,Target,log2 fold change
1,"UniProt P17036 (peptide sequence: TSDLIQHQR, peptide start residue: 212)",0.0165
2,"TRIM21 (peptide sequence: GGGSVCPVCR, peptide start residue: 46) (UniProt P19474)",0.252
3,"IGFBP4 (peptide sequence: EDARPVPQGSCQSELHR, peptide start residue: 164) (UniProt P22692)",-0.346
4,"TMOD1 (peptide sequence: KFSIVGTR, peptide start residue: 228) (UniProt P28289)",0.17
5,"FKBP2 (peptide sequence: LVIPSELGYGER, peptide start residue: 104) (UniProt P26885)",0.0511
6,"HK1 (peptide sequence: GKFNTSDVSAIEKNK, peptide start residue: 332) (UniProt P19367)",0.861
7,"GATA1 (peptide sequence: LHQVNRPLTMR, peptide start residue: 288) (UniProt P15976)",-0.199
8,"NQO1 (peptide sequence: EGHLSPDIVAEQK, peptide start residue: 78) (UniProt P15559)",-0.447
9,"UniProt P18859 (peptide sequence: FEDPKFEVIEKPQA, peptide start residue: 95)",0.11
10,"TUBG1 (peptide sequence: KLANFIPWGPASIQVALSRK, peptide start residue: 344) (UniProt P23258)",0.628
11,"SMARCA1 (peptide sequence: LAKEEMLQMIR, peptide start residue: 660) (UniProt P28370)",-0.442
12,"PLCG1 (peptide sequence: SLMYSAQK, peptide start residue: 219) (UniProt P19174)",0.165
13,"AK4 (peptide sequence: DVAKPVIELYK, peptide start residue: 176) (UniProt P27144)",-0.103
14,"CDK2 (peptide sequence: AALAHPFFQDVTKPVPHLR, peptide start residue: 279) (UniProt P24941)",-0.43
15,"TCP1 (peptide sequence: DCLINAAK, peptide start residue: 146) (UniProt P17987)",-0.1
16,"RPL7 (peptide sequence: GINGVSPKVR, peptide start residue: 97) (UniProt P18124)",0.577
17,"RPA2 (peptide sequence: QAVDFLSNEGHIYSTVDDDHFK, peptide start residue: 244) (UniProt P15927)",0.0943
18,"CANX (peptide sequence: IVDDWANDGWGLKK, peptide start residue: 446) (UniProt P27824)",-0.258
19,"ATP6V1B2 (peptide sequence: NYLSQPR, peptide start residue: 38) (UniProt P21281)",0.0841

row,Target,log2 fold change
1,"UQCRB (peptide sequence: DDTIYEDEDVKEAIR, peptide start residue: 35) (UniProt P14927)",-0.0831
2,"UniProt P28482 (peptide sequence: ELIFEETAR, peptide start residue: 345)",0.194
3,"EIF4B (peptide sequence: DGKKDQDSR, peptide start residue: 563) (UniProt P23588)",-0.644
4,"DNMT1 (peptide sequence: NFVSFKR, peptide start residue: 1270) (UniProt P26358)",-0.357
5,"UniProt P16989 (peptide sequence: DGVPEGAQLQGPVHRNPTYRPR, peptide start residue: 269)",0.383
6,"RAB4A (peptide sequence: MGSGIQYGDAALR, peptide start residue: 188) (UniProt P20338)",0.0457
7,"HIST1H1D (peptide sequence: KASGPPVSELITK, peptide start residue: 34) (UniProt P16402)",0.0716
8,"UniProt P18054 (peptide sequence: TDLEKLEK, peptide start residue: 629)",0.145
9,"NME1 (peptide sequence: GLVGEIIKR, peptide start residue: 19) (UniProt P15531)",-0.35
10,"UniProt P17516 (peptide sequence: REDIFYTSK, peptide start residue: 76)",0.0997
11,"GPD1 (peptide sequence: LTEIINTQHENVK, peptide start residue: 50) (UniProt P21695)",0.437
12,"UniProt P17024 (peptide sequence: SHTGEKPYECKQCGK, peptide start residue: 216)",-0.775
13,"UniProt P14618 (peptide sequence: YRPRAPIIAVTR, peptide start residue: 444)",0.781
14,"CEBPB (peptide sequence: NLETQHK, peptide start residue: 296) (UniProt P17676)",-0.198
15,"UBA1 (peptide sequence: NFPNAIEHTLQWAR, peptide start residue: 636) (UniProt P22314)",0.219
16,"HIVEP1 (peptide sequence: ASPVSFQELNR, peptide start residue: 1157) (UniProt P15822)",-0.308
17,"COX6B1 (peptide sequence: FPNQNQTR, peptide start residue: 21) (UniProt P14854)",0.15
18,"USF1 (peptide sequence: ACDYIQELR, peptide start residue: 247) (UniProt P22415)",0.0901

# Nine neighbouring records already listed, for reference:
row,Target,log2 fold change
13,"AK4 (peptide sequence: DVAKPVIELYK, peptide start residue: 176) (UniProt P27144)",-0.103
14,"CDK2 (peptide sequence: AALAHPFFQDVTKPVPHLR, peptide start residue: 279) (UniProt P24941)",-0.43
15,"TCP1 (peptide sequence: DCLINAAK, peptide start residue: 146) (UniProt P17987)",-0.1
16,"RPL7 (peptide sequence: GINGVSPKVR, peptide start residue: 97) (UniProt P18124)",0.577
17,"RPA2 (peptide sequence: QAVDFLSNEGHIYSTVDDDHFK, peptide start residue: 244) (UniProt P15927)",0.0943
18,"CANX (peptide sequence: IVDDWANDGWGLKK, peptide start residue: 446) (UniProt P27824)",-0.258
19,"ATP6V1B2 (peptide sequence: NYLSQPR, peptide start residue: 38) (UniProt P21281)",0.0841
1,"UQCRB (peptide sequence: DDTIYEDEDVKEAIR, peptide start residue: 35) (UniProt P14927)",-0.0831
2,"UniProt P28482 (peptide sequence: ELIFEETAR, peptide start residue: 345)",0.194
